PMC12756398
No constants are given. Whether binding was seen depends on the method and setting. In cells and extracts the contact can be indirect. Some results given as binding are weak or reduced against the parent protein; the word gives no strength. Sequences can lack the tags named with a protein.

Amino acid sequences for entries named in this document (tags omitted). A change or cut given only in a name is not applied to a line headed by its entry. Chains listed by the source or under a name are the forms on record and can include a tag or linker.
UniProt P61586: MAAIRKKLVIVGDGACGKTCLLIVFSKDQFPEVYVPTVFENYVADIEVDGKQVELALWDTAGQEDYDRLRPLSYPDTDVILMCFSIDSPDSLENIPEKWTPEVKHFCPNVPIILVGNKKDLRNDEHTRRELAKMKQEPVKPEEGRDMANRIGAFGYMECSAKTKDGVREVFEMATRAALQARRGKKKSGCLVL
SNAP-tagged RhoA N19 (inactive form of RhoA) (P61586, form named): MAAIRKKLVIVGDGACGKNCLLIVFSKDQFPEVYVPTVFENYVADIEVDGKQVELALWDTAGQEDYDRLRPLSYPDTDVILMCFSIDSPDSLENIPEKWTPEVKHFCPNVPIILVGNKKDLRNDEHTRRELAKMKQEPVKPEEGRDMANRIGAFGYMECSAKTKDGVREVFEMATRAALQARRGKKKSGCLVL

Molecular target: T1, GST-fused RA domain of ARAP1 (aa 1179-1262) (mouse) (UniProt Q4LDD4)
T1 sequence: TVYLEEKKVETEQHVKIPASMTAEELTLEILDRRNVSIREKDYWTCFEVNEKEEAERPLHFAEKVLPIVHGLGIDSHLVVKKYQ
Assay: pull-down; GST, GST-RA or GST-RA-PH held on glutathione Sepharose 4B beads; lysates of 293T cells transfected with SNAP-tagged GTPases (1% Triton X-100, 0.1 M Tris-HCl pH 7.5, 0.1 M NaCl, 10 mM MgCl2); 4 °C, 1 h; immunoblotting; only the target purified

binding: binds
Substance: SNAP-tagged RhoA N19 (inactive form of RhoA) (from UniProt P61586 1-193)
